Laboratory results reported in PubChem BioAssay AID445 (National Center for Advancing Translational Sciences (NCATS), 2006).
The list shows a part of the results. These are further read-outs of the screen, such as a control signal, another cell line or another target. No call is given for them. The list favours compounds with an active or inconclusive main result. Words in brackets tell the shape of the fitted curve; partial curves, single points and poor fits give uncertain potencies.

Experiment: IkB Signaling
Settings: ABC-DLBCL IkBa-CBG/CBR dual luciferase ratio (green luciferase fused to IkBa over red control in OCI-Ly3 lymphoma cells), 4 h; measured here: control luc red channel unless noted
Procedure, shortened: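 Curves were fitted separately to fusion (green), unfused (red) and ratio luminescence, then classed by r2, magnitude and activity. Cells: OCI-Ly3, 4 h compound plus doxycycline at 37C; 10 uM MG-132 defined full response.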

| Structure (SMILES) | AC50 |
| --- | --- |
| Cc1ccc(C)n1-c1nnc(N2CCCC(C(=O)NCc3cccc(Cl)c3)C2)s1 (stereo unspecified) | 31.6 µM [falling, single point] |
| Cc1ccc(/C=C/c2onc(C)c2S(=O)(=O)N2CCC(C(=O)NCC(C)c3ccccc3)CC2)cc1 (stereo unspecified) | 0.00631 µM [falling, full curve] |
| O=C(Nc1ccc2c(c1)OCCO2)C1CCCN(S(=O)(=O)c2cccs2)C1 (stereo unspecified) | 31.6 µM [falling, partial curve] |
| Cc1ccc(Cl)cc1N1CCN(S(=O)(=O)c2ccc3c(c2)CCCN3C(=O)C2CCC2)CC1 | 0.00631 µM [falling, full curve, poor fit] |
| Cc1ccc(CN2C(=O)c3oc4ccc(C)cc4c(=O)c3C2c2ccc(O)cc2)cc1 (stereo unspecified) | 3.16 µM [rising, single point] |
| COc1cc(OC)c(NC(=O)Cn2c(=O)oc3cc(S(=O)(=O)N4CCCC4)ccc32)cc1Cl | 7.94 µM [falling, partial curve] |
| COc1ccc(CCNS(=O)(=O)c2ccc(C(=O)NCc3ccco3)cc2)cc1OC | 1 µM [rising, full curve, poor fit] [measured here: IkB-luc green channel] |
| Cc1cc(Cl)ccc1NC(=O)CN(c1ccccc1Br)S(C)(=O)=O | 31.6 µM [falling, single point] |
| COc1ccc(CN2CCN(c3ncnc4sc5c(c34)CC(C)CC5)CC2)cc1F (stereo unspecified) | 20 µM [falling, single point] |
| COc1ccccc1N1CCN(CCCNC(=O)c2cnn(-c3ccccc3)c2C2CCN(C(=O)OC(C)(C)C)CC2)CC1 | 25.1 µM [falling, partial curve] |
| COCCCNc1oc(-c2ccc(COc3ccc(Cl)cc3)o2)nc1C#N | 39.8 µM [falling, single point] |
| CCCCCNC(=O)CCCCCn1c(=O)[nH]c2ccsc2c1=O | 0.0316 µM [falling, full curve, poor fit] |
| CCOc1ccc(C2CC(=O)Nc3c2c(=O)nc(SCc2ccccc2C)n3C)cc1OC (stereo unspecified) | 25.1 µM [falling, single point] |
| COC(=O)c1ccccc1NC(=O)Cn1c(-c2nonc2N)nc2ccccc21 | 1.26 µM [rising, partial curve] [measured here: IkB-luc green channel] |
| O=C(NCc1ccccn1)c1cc2ccccc2oc1=O | 12.6 µM [falling, partial curve] |
| Cc1cccn2c(=O)c3cc(C(=O)NC(C)c4ccccc4)c(=N)n(CCCO)c3nc12 (stereo unspecified) | 31.6 µM [falling, single point] |
| COC(=O)c1ccc(OCC2c3cc(OC)c(OC)cc3CCN2C(=O)c2ccc(F)cc2)cc1 (stereo unspecified) | 39.8 µM [falling, single point] |
| O=C(Cn1nnc(-c2ccccc2Cl)n1)Nc1ccc(Br)cc1 | 39.8 µM [falling, single point] |
| Cc1c2ccccc2c(CSC(=N)N)c2ccccc12 | 3.16 µM [falling, partial curve] |
| COc1ccc(C(=O)NCC(c2ccc(N(C)C)cc2)N2CCc3ccccc32)c(OC)c1 (stereo unspecified) | 20 µM [falling, single point] |
| COc1ccc(S(=O)(=O)NCC(c2ccco2)N2CCOCC2)cc1OC (stereo unspecified) | 0.158 µM [rising, full curve, poor fit] |

| Structure (SMILES) | AC50 |
| --- | --- |
| Cc1ccc(NC(=O)CCc2c(C)nc3cc(-c4ccccc4)nn3c2C)cc1F | 0.398 µM [falling, full curve] |
| CCN1C(=O)c2ccccc2Sc2ccc(NC(=O)c3ccc(Cl)cc3)cc21 | 39.8 µM [falling, single point] |
| CCOC(=O)Nc1ccc2c(c1)N(C(=O)N1CCN(C)CC1)c1ccccc1S2 | 10 µM [falling, partial curve] |
| O=C(Cc1ccccc1)Nc1nc(-c2cccs2)cs1 | 20 µM [falling, single point] |
| COc1ccc(C(=O)NCCn2cc(SCC(=O)Nc3nnc(C)s3)c3ccccc32)cc1 | 20 µM [falling, partial curve] |
| CC(C)OC(=O)CSc1nnc(-c2ccc(O)cc2)n1Cc1ccccc1 | 25.1 µM [falling, single point] |
| CCOc1ccc(CN2CCc3nc(Nc4ccc(OC)cc4OC)ncc3C2)cc1 | 10 µM [falling, partial curve] |
| CCN(CC)CCCNC(=O)c1nn(C)c2c1CS(=O)(=O)c1ccccc1-2 | 15.8 µM [falling, partial curve] |
| Cc1ccccc1Cn1c(CN2CCC(C(=O)NCCc3ccccc3)CC2)cc2ccccc21 | 1.26 µM [rising, full curve, poor fit] |
| Cc1ccc2sc(NC(=O)c3ccc4c(c3)OCCO4)nc2c1C | 20 µM [falling, partial curve] |
| COc1ccc2c(c1)c1c(c(=O)n(-c3ccc(F)c(Cl)c3)c(=O)n1Cc1ccccc1C)n2C | 0.0631 µM [rising, full curve] |
| CCSC1=NC2(CCN(C(=O)NC3CCCCC3)CC2)N=C1c1ccc(Cl)cc1 | 25.1 µM [falling, single point] |
| CCN(Cc1ccccc1)C(=O)Cn1c(=O)n(-c2ccc(C)c(C)c2)c(=O)c2c(C)c(C)sc21 | 7.94 µM [falling, partial curve] |
| COc1ccc(CNc2oc(-c3ccc(COc4ccccc4C)o3)nc2C#N)cc1 | 3.98 µM [falling, full curve] |
| O=C(Nc1nccs1)c1cc2sccc2n1Cc1ccc(F)cc1 | 1 µM [rising, partial curve] [measured here: IkB-luc green channel] |
| COc1cccc(C(=O)Nc2cccc(-c3cn4c(C)csc4n3)c2)c1OC | 39.8 µM [falling, single point] |
| O=C(Nc1cccc(Cl)c1)c1cc2c(=O)[nH]c3ccccc3c2s1 | 0.01 µM [falling, full curve] |
| Cc1cccc(N2CCN(C(=O)CCn3c(=O)c4cccn4c4cccnc43)CC2C)c1 (stereo unspecified) | 15.8 µM [falling, partial curve] |
| COc1cc2c(c(OC)c1)C(c1cccc(OC)c1OC)CC(=O)N2 (stereo unspecified) | 25.1 µM [rising, partial curve] |
| CC1(C)CCC2=C(O1)c1ccccc1C(=O)C2=O | 31.6 µM [rising, partial curve, poor fit] [measured here: IkB-luc green channel] |
| Cc1nnc(N2CCCC(C(=O)NCCc3ccc(Cl)cc3)C2)c2nn(-c3ccccc3)c(C)c12 (stereo unspecified) | 20 µM [falling, partial curve] |

An excerpt of these results, bar-delimited.
Structure (SMILES) | AC50
Cc1ccc(Cl)cc1N1CCN(S(=O)(=O)c2ccc3c(c2)CCCN3C(=O)C2CCC2)CC1 | 0.00631 µM [falling, full curve, poor fit]
Cc1ccc(CN2C(=O)c3oc4ccc(C)cc4c(=O)c3C2c2ccc(O)cc2)cc1 (stereo unspecified) | 3.16 µM [rising, single point]
COc1cc(OC)c(NC(=O)Cn2c(=O)oc3cc(S(=O)(=O)N4CCCC4)ccc32)cc1Cl | 7.94 µM [falling, partial curve]

(next part)

| Structure (SMILES) | AC50 |
| --- | --- |
| CCOc1ccc(-c2nn(CC(=O)NC3CCCC3)c3c2cnc2ccc(F)cc23)cc1 | 0.631 µM [rising, full curve, poor fit] |
| O=C(NCCc1ccccc1Cl)c1ccc2c(c1)nc1n2CCCCC1 | 39.8 µM [falling, single point] |
| Cc1ccc(Cl)cc1N1CCN(Cc2nnc(-c3ccc4c(c3)OCO4)o2)CC1 | 25.1 µM [falling, partial curve] |
| Cc1cc(NC(=O)C2CCN(S(=O)(=O)c3ccc(Br)s3)CC2)ccc1Br | 15.8 µM [falling, partial curve] |
| CCN(CC)CCCNC(=O)c1cc(-c2cccc(Cl)c2)on1 | 10 µM [falling, partial curve] |
| Cc1ccc(CNC(=O)CSc2n[nH]c(-c3ccc(F)cc3)n2)cc1 | 15.8 µM [falling, single point] |
| O=C(COc1ccccc1O)Nc1ccc(Cl)cc1 | 7.94 µM [falling, partial curve] |
| Cc1cc2oc(C(=O)Nc3ccc(S(=O)(=O)N4CCCCCC4)cc3)cc(=O)c2cc1C | 0.0398 µM [rising, full curve] |
| COc1cc2c(=O)n(CC3CCCO3)c(=O)n(CC(=O)Nc3cccc(Cl)c3)c2cc1OC (stereo unspecified) | 3.98 µM [falling, full curve, poor fit] |
| O=C(c1ccc(COc2ccc(Cl)cc2)o1)N1CCN(Cc2ccc3c(c2)OCO3)CC1 | 7.94 µM [falling, partial curve] |
| Cc1ccc(NC(=O)Nc2nnc(N(C)Cc3ccccc3)s2)c(C)c1 | 12.6 µM [falling, partial curve] |
| CC(=O)N1CCc2c(sc3nc(SCC(C)C)n(-c4ccc(F)c(Cl)c4)c(=O)c23)C1 | 25.1 µM [falling, single point] |
| COC(=O)c1ccc(C2C(C(=O)Nc3ccccc3)=C(C)Nc3nc4ccccc4n32)cc1 (stereo unspecified) | 12.6 µM [falling, partial curve] |
| CN(C)S(=O)(=O)N(CC(=O)Nc1ccc(C(F)(F)F)cc1)c1ccccc1 | 7.94 µM [falling, partial curve] |
| Cc1nc(N2CCOCC2)c2c(C(=O)NCc3ccc(Cl)cc3)c(C)oc2n1 | 20 µM [falling, single point] |
| CCc1ccc(NC(=O)c2nc3nc(C)cc(C(F)F)n3n2)cc1 | 1.58 µM [rising, full curve] |
| Cc1ccc(S(=O)(=O)N2CC=C(c3c(C)n(CC(=O)N4CCCC4)c4ccccc34)CC2)cc1C | 20 µM [falling, single point] |
| COc1cc(OC)cc(C(=O)NCCc2csc3nc(-c4ccccc4F)nn23)c1 | 39.8 µM [falling, single point] |
| Cc1sc(-n2cccc2)c(C(C)NC(=O)Nc2cccc(C(F)(F)F)c2)c1C (stereo unspecified) | 1.58 µM [falling, single point] |
